Measured values from article PMC7801388.
Read-outs that look alike come from different tables or passages of the source. Results are given in words; binding and its absence hold for the method and conditions named. In cells and extracts the contact can be indirect. Some entries that bind do so weakly or less than the wild type. For some of these results: Sequences can lack the tags named with a protein. Values belong to the molecule of their own block, whether it stands above or below them.

Amino acid sequences for entries named in this document (tags omitted).
UniProt P35222: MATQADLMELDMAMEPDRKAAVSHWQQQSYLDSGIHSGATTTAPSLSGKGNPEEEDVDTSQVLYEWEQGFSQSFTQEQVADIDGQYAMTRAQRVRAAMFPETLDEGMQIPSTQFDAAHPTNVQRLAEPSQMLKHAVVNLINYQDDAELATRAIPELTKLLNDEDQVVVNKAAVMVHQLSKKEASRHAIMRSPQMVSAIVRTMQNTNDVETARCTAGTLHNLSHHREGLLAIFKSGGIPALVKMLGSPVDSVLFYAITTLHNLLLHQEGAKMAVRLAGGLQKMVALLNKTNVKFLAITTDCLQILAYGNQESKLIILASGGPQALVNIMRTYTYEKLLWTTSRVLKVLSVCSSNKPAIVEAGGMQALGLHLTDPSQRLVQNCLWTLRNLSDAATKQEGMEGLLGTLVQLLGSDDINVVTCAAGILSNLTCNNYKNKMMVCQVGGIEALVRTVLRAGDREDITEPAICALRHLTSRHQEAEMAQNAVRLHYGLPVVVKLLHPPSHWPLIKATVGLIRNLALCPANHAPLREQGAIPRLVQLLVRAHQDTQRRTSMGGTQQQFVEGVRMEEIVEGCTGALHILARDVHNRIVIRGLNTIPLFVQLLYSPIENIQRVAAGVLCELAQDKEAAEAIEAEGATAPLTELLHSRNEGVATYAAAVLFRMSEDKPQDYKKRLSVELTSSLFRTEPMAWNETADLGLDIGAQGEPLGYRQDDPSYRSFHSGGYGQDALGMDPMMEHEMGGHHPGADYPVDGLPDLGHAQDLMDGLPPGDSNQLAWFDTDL
UniProt P49841: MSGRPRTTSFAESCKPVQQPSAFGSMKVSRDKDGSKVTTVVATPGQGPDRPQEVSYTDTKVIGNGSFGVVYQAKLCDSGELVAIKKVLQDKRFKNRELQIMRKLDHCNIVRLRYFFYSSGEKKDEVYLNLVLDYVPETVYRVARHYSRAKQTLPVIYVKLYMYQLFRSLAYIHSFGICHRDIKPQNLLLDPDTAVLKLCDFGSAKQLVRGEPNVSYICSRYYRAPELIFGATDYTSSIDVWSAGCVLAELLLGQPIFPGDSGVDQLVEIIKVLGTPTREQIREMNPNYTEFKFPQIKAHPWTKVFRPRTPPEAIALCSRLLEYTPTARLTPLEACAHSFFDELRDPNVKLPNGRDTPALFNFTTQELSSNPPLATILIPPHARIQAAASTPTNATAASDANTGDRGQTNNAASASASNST
UniProt Q9Y297: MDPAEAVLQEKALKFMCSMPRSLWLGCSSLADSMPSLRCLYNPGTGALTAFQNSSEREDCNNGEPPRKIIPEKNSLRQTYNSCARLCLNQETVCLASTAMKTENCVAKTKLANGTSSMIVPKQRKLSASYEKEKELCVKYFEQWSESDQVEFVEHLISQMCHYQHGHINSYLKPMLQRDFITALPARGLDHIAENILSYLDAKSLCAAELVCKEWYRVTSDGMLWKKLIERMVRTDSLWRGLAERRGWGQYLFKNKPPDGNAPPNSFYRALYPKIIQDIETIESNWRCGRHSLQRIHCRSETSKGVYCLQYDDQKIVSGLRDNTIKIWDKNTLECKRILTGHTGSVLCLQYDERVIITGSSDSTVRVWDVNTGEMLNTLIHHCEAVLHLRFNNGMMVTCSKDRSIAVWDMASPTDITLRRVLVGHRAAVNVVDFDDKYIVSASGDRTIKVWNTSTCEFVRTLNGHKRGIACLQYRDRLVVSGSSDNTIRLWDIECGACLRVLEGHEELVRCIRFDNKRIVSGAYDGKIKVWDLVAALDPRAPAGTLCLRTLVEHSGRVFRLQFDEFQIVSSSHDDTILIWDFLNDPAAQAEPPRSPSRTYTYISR
UniProt Q9UNE7: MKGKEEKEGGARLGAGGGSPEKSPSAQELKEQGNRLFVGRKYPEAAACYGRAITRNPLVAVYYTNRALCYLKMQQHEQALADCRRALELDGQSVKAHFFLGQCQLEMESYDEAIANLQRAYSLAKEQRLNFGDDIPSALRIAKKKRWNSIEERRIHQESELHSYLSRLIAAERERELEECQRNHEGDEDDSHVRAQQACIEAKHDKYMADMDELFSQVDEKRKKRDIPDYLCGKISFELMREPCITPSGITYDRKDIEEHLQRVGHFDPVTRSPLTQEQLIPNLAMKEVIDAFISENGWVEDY
UniProt Q9UJU2: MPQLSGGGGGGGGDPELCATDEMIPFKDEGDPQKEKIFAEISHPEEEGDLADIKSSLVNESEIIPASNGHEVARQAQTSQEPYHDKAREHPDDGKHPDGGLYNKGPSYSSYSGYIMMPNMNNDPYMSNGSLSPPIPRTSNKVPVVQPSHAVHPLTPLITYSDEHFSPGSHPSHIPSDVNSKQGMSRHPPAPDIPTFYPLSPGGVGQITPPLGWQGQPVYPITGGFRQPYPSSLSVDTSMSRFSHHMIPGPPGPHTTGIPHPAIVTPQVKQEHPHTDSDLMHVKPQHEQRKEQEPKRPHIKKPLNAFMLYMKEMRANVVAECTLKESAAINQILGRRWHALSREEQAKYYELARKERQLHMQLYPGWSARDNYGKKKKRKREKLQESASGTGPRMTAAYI

Assays:
[1] = target: β-catenin (endogenous) (human (endogenous in SHSY5Y)) (UniProt P35222); experiment: co-IP; endogenous proteins of SHSY5Y cells; lysate incubated with indicated antibodies overnight at 4 °C, Dynabeads protein G 2 h; cells transfected with CHIP, CHIP T246M or CHIP siRNA
[2] = target: Flag-GSK3β (glycogen synthase kinase 3) (human (A549 cDNA)) (UniProt P49841); experiment: co-IP; HEK293T cells co-transfected with Flag- and HA-tagged plasmids; whole-cell lysates in low-salt lysis buffer (50 mM Hepes pH 7.5, 150 mM NaCl, 1% Triton X-100) incubated with anti-Flag agarose overnight at 4 °C, blotted with anti-HA; in Fig. 5 also with Myc-CHIP or Myc-CHIP T246M, CHIP siRNA, Wnt3a (40 ng/ml, 1 h)
[3] = target: Flag-β-TrCP (human (A549 cDNA)) (UniProt Q9Y297); experiment: as above
[4] = target: T1, Flag-Arc (activity-regulated cytoskeleton-associated protein) (human (A549 cDNA)) (UniProt Q7LC44); experiment: as above
T1 sequence: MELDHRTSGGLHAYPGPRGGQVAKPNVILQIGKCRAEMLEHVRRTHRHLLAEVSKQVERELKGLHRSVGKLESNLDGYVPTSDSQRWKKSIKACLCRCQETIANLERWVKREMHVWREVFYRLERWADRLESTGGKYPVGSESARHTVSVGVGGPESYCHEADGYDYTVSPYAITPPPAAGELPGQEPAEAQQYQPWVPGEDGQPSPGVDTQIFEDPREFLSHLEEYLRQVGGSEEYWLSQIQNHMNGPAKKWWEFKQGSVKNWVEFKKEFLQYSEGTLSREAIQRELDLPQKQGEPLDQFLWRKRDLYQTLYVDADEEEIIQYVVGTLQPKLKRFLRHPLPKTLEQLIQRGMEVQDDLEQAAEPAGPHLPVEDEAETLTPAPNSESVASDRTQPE

[5] = target: Flag-β-catenin (human (A549 cDNA)) (UniProt P35222); experiment: as above
[6] = target: Flag-GSK3β (glycogen synthase kinase 3) (human (A549 cDNA)) (UniProt P49841); experiment: as above; remark: listed apart in the source
[7] = target: Flag-CHIP (human (A549 cDNA)) (UniProt Q9UNE7); experiment: as above

- binding [1]: binds
Molecule: LEF1 (endogenous) (from UniProt Q9UJU2 1-399)

- binding [2]: binds
- binding [3]: binds weakly
- binding [4]: binds
- binding [5]: binds weakly
Molecule: HA-CHIP (carboxyl terminus of Hsc70-interacting protein) (from UniProt Q9UNE7 1-303) (enzyme)

- binding [6]: binds
- binding [7]: binds
B1: HA-Arc (protein, UniProt Q7LC44 1-396)
chain: MELDHRTSGGLHAYPGPRGGQVAKPNVILQIGKCRAEMLEHVRRTHRHLLAEVSKQVERELKGLHRSVGKLESNLDGYVPTSDSQRWKKSIKACLCRCQETIANLERWVKREMHVWREVFYRLERWADRLESTGGKYPVGSESARHTVSVGVGGPESYCHEADGYDYTVSPYAITPPPAAGELPGQEPAEAQQYQPWVPGEDGQPSPGVDTQIFEDPREFLSHLEEYLRQVGGSEEYWLSQIQNHMNGPAKKWWEFKQGSVKNWVEFKKEFLQYSEGTLSREAIQRELDLPQKQGEPLDQFLWRKRDLYQTLYVDADEEEIIQYVVGTLQPKLKRFLRHPLPKTLEQLIQRGMEVQDDLEQAAEPAGPHLPVEDEAETLTPAPNSESVASDRTQPE
